# Data from the supplement of paper PMC12819154, “High-throughput peptide-centric local stability assay extends protein–ligand identification to membrane proteins, tissues and bacteria” (Nature Structural & Molecular Biology, 2025).
# Amino acid sequences for entries named in this document (tags omitted). A change or cut given only in a name is not applied to a line headed by its entry.
# UniProt Q9H611: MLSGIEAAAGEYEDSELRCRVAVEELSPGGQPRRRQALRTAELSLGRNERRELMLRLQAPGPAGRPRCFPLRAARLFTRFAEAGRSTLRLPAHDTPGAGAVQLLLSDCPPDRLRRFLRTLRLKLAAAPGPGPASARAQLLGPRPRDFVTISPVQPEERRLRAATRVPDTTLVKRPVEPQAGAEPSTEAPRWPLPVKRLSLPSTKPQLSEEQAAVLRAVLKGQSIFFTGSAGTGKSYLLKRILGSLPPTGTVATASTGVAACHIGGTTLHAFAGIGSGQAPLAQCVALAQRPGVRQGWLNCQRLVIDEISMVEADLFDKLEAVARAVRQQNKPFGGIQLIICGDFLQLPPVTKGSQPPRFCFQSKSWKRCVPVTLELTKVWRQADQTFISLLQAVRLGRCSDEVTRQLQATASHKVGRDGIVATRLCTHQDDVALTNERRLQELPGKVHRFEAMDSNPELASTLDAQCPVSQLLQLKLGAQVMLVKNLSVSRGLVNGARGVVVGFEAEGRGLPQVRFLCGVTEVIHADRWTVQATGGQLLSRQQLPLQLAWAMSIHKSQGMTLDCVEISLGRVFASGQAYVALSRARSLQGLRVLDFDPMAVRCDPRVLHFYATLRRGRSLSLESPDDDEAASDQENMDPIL
# UniProt Q9H583: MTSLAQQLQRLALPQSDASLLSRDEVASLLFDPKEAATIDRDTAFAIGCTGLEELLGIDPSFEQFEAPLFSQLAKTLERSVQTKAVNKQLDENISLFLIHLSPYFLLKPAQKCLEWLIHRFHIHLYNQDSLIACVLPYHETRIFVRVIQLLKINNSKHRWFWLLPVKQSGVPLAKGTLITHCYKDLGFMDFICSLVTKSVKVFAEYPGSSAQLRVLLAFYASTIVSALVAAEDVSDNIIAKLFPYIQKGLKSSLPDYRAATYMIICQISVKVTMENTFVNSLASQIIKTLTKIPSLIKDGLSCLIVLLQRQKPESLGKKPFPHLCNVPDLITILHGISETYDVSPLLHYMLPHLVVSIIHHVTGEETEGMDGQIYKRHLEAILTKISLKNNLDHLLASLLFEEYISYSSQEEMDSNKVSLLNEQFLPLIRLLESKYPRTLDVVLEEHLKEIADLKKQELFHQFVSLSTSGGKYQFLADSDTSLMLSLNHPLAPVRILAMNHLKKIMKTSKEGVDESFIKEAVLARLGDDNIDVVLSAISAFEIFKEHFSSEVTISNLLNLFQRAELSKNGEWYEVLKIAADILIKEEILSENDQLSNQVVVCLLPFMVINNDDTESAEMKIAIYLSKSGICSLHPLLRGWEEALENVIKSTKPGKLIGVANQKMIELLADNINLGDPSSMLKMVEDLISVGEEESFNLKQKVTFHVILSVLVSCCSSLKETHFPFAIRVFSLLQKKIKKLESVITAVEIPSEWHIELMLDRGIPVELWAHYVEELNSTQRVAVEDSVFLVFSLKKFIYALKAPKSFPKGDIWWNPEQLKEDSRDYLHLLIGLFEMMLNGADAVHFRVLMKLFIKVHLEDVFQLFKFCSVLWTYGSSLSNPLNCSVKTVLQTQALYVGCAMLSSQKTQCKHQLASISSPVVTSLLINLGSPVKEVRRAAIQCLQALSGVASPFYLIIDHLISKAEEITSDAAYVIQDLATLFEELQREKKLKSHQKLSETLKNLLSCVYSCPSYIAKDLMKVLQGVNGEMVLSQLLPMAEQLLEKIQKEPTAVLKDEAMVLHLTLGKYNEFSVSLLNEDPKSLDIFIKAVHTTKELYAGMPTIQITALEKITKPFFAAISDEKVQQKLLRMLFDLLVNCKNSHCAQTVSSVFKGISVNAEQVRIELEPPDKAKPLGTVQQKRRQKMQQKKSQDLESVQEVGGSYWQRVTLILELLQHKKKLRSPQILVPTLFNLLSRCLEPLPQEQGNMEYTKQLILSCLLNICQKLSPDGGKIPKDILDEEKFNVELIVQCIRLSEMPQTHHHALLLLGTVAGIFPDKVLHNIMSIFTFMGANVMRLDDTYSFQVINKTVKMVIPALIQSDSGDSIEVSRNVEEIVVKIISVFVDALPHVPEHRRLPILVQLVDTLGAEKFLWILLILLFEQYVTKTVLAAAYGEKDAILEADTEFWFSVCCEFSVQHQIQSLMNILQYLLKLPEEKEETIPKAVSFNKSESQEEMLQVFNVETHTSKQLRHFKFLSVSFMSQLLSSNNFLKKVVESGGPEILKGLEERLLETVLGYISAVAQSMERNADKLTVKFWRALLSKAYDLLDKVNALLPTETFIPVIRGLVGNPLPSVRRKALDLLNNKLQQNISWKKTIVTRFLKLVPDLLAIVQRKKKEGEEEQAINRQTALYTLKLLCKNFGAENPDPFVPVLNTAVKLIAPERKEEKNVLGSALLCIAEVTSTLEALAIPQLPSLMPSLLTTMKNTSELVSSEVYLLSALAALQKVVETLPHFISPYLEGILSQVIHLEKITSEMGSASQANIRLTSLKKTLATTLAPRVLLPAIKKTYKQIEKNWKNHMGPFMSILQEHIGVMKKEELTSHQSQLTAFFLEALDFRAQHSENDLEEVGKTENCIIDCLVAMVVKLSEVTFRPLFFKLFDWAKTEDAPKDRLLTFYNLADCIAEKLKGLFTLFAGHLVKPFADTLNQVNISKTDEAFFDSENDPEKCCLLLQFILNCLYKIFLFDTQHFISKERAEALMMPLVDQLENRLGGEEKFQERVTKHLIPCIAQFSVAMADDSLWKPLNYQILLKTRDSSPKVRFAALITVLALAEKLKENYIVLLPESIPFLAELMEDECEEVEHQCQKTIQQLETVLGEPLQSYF
# UniProt Q9NPJ3: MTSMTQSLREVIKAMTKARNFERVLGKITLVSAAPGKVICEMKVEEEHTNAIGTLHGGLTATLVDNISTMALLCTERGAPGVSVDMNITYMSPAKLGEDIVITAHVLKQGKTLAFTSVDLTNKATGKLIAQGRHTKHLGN
# UniProt Q9H4E7, whole entry: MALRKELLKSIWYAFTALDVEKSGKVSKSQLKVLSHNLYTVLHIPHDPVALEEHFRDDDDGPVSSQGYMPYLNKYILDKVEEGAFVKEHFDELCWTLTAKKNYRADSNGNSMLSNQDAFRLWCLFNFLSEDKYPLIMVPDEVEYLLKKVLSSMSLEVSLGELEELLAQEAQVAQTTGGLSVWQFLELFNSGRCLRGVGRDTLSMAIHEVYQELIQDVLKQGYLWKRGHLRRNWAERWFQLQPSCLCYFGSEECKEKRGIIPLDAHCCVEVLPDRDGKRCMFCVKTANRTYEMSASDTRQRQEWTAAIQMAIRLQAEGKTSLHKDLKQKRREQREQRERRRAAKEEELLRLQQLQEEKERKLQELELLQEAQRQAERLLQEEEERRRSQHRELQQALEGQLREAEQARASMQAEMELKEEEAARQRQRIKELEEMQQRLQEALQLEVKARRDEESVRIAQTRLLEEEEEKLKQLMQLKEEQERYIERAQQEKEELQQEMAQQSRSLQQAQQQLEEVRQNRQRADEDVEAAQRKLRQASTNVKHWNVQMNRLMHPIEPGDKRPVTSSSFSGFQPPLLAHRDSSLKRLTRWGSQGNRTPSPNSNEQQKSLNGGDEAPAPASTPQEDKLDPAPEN
# UniProt Q9HCE3: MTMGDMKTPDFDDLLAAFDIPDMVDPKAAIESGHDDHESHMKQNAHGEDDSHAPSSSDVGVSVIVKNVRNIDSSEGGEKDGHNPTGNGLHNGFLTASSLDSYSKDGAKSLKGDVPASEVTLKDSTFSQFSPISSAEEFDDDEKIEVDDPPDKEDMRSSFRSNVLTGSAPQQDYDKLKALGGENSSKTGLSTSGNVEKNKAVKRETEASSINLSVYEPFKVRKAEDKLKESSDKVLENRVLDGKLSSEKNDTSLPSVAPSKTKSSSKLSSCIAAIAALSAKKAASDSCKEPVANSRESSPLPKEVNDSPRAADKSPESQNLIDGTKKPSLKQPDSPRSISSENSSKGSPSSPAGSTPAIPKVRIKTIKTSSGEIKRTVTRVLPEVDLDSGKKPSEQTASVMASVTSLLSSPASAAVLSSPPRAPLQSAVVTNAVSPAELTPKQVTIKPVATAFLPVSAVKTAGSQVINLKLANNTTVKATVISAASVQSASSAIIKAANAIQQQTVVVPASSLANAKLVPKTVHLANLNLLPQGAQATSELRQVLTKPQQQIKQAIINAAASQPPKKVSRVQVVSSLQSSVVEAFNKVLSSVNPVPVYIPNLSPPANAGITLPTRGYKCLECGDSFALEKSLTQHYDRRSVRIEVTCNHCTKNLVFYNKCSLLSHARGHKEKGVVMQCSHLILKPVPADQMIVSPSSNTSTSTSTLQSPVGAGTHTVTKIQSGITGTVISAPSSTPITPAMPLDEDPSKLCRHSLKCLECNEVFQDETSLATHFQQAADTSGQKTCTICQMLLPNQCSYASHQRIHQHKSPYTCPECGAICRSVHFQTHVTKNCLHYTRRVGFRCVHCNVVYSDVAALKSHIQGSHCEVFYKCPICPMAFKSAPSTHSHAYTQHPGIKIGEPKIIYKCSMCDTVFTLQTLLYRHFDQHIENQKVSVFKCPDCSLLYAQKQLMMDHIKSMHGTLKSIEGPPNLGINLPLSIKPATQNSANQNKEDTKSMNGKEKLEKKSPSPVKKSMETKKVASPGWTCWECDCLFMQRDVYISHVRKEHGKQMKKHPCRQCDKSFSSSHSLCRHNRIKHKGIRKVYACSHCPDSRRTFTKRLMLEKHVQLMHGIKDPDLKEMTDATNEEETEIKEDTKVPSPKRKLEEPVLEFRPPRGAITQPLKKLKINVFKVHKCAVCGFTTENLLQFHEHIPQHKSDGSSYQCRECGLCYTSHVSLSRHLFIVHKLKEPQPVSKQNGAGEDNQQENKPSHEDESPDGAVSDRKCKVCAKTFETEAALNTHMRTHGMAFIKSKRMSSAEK
# UniProt Q9H974: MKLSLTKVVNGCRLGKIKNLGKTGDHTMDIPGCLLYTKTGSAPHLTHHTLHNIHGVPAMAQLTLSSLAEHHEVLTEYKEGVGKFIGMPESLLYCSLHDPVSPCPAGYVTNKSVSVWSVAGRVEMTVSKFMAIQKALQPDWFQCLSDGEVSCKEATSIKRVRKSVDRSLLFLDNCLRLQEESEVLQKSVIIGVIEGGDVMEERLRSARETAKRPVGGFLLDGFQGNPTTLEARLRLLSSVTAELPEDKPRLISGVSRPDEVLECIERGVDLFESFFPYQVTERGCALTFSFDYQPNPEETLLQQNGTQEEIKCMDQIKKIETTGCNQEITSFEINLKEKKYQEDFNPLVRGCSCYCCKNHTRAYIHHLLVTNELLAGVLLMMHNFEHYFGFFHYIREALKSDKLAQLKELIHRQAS
# UniProt Q9HD42: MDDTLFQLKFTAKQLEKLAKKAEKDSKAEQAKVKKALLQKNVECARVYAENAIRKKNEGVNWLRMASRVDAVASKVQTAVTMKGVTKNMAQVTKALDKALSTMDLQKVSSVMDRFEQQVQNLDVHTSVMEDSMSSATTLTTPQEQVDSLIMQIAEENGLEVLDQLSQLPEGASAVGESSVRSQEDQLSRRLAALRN
# UniProt Q9H7X7: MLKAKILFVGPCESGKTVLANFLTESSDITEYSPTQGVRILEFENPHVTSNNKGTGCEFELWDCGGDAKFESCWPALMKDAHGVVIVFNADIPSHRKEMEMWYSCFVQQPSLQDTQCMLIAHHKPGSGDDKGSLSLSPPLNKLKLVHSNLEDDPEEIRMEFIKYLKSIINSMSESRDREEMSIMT
# UniProt Q9NP80: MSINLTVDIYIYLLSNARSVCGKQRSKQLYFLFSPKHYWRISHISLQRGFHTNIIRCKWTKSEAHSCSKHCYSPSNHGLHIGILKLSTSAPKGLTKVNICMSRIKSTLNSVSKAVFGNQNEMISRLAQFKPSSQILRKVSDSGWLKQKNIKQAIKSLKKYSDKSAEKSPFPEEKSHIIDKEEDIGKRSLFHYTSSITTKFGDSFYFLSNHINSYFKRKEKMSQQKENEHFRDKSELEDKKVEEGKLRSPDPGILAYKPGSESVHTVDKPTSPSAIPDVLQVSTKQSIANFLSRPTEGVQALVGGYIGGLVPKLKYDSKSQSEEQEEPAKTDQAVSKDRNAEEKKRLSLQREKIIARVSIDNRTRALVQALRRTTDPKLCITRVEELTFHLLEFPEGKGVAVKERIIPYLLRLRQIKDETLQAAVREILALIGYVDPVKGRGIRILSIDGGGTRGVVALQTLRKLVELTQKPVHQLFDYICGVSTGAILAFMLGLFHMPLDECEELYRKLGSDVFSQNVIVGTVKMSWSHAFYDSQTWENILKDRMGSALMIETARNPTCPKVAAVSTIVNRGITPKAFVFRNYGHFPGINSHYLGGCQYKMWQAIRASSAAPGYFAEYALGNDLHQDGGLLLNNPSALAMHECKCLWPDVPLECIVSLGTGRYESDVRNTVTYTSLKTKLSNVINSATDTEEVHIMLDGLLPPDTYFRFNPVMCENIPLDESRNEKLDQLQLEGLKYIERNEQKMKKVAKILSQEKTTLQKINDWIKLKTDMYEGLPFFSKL
# The other results are listed elsewhere or left out. Most entries show no effect beyond the scatter of the controls.
# Compound: CN[C@@H]1C[C@H]2O[C@@](C)([C@@H]1OC)n1c3ccccc3c3c4c(c5c6ccccc6n2c5c31)C(=O)NC4 [staurosporine]
# Assay: log2 fold change of tryptic peptide abundance, ligand vs vehicle (limited proteolysis) (log2 ratio); higher = more trypsin-susceptible (destabilized)
# Details: ligand concentration: 20 uM; sample: K562 cleared lysate; digestion: 4 min, 22 C (HT-PELSA RT4min, Orbitrap Astral)
row,Target,log2 fold change
1,"UniProt Q9H611 (peptide sequence: LAAAPGPGPASAR, peptide start residue: 124)",-0.0232
2,"NOL6 (peptide sequence: AQLPVMVIVTPQDRK, peptide start residue: 942) (UniProt Q9H6R4)",0.537
3,"ZNF768 (peptide sequence: GGQGPRPNICGICGK, peptide start residue: 254) (UniProt Q9H5H4)",0.198
4,"WDR55 (peptide sequence: ELWSSGHHLK, peptide start residue: 76) (UniProt Q9H6Y2)",0.48
5,"HEATR1 (peptide sequence: HLEAILTK, peptide start residue: 378) (UniProt Q9H583)",0.797
6,"UniProt Q9H8G1 (peptide sequence: YLECDKAFSQSSTLTK, peptide start residue: 515)",-0.305
7,"UniProt Q9H6K1 (peptide sequence: GLHGPYPFGQS, peptide start residue: 288)",0.036
8,"UniProt Q9NPJ3 (peptide sequence: ITLVSAAPGK, peptide start residue: 28)",0.372
9,"DEF6 (peptide sequence: TYEMSASDTR, peptide start residue: 289) (UniProt Q9H4E7)",-0.16
10,"UniProt Q9HCE3 (peptide sequence: TSSGEIKR, peptide start residue: 382)",-0.138
11,"UniProt Q9H974 (peptide sequence: SVSVWSVAGR, peptide start residue: 112)",-0.626
12,"CHMP1A (peptide sequence: VYAENAIR, peptide start residue: 47) (UniProt Q9HD42)",-0.0901
13,"UniProt Q9H7X7 (peptide sequence: ILEFENPHVTSNNK, peptide start residue: 40)",0.132
14,"PNPLA8 (peptide sequence: GVVALQTLR, peptide start residue: 454) (UniProt Q9NP80)",0.17
15,"ZFYVE1 (peptide sequence: FPEAFSSIHYK, peptide start residue: 350) (UniProt Q9HBF4)",-0.676
